Test results published in PubChem BioAssay AID652054 (National Center for Advancing Translational Sciences (NCATS), 2013).
The whole screen tested about 360,000 compounds, of which about 9,100 (2.5%) were called active. The inconclusive results got no clear call from the source; some entries with a clear call stand among them for comparison. Cut-off read from the data, not from the text of the source: active = max response below about -50%; inconclusive = no clear call, values can overlap the other calls; inactive = above that.

Protein sequences, listed by entry. Tags and fused reporters are not part of them.
UniProt P35462, whole entry, looked up: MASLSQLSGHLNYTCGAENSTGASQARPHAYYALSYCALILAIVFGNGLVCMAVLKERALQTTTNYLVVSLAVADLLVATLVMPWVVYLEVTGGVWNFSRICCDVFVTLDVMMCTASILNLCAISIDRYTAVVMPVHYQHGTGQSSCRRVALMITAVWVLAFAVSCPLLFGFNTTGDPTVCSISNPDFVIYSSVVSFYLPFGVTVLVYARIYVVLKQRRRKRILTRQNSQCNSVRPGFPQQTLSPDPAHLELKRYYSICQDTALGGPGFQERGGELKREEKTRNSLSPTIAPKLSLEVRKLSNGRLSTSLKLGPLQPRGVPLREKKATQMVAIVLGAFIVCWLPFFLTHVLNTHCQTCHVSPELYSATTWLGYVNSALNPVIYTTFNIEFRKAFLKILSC

target: D(3) dopamine receptor (Homo sapiens) (UniProt P35462); experiment: qHTS of D3 Dopamine Receptor Antagonist: qHTS; conditions: D3R cells, DiscoveRx beta-arrestin luminescence, antagonist mode; stronger effect = lower value
Description: D3 DARs represent a very important target for the treatment of several neuropsychiatric disorders. Indeed, one of the most promising therapeutic applications for the D3 DAR is in the area of addiction and related disorders. […] These findings have been observed with a number of addictive substances including cocaine, amphetamine, nicotine, and alcohol. […] Antagonism of the D3 DAR may also be therapeutic in the treatment of schizophrenia or psychosis. […] Since the D3 DAR is expressed in areas of the CNS associated with the control of mood and emotion, it has been hypothesized that selective antagonism of the D3 DAR may be effective in treating psychosis without inducing the motor side effects typically seen with D2 DAR antagonists.
This part of the project aims to discover novel antagonist.
NIH Chemical Genomics Center [NCGC]
NIH Molecular Libraries Probe Centers Network [MLPCN]
Assay Submitter (PI): David Sibley, NINDS
Freshly passaged cells are plated in 1536 well white, solid bottom plates at a density of 1500 cells/well in 3microl of complete media. After an overnight incubation at 37 degrees C in 5% CO2, cells are loaded with 23nl of test compound from the compound library (as well as dopamine controls) using a 1536 pintool and incubated at 37 degrees C for 90 minutes. Two microliters of DiscoveRx reagent is then added to all cells, and they are incubated for an additional 30 - 60 minutes at room temperature. Following incubation, luminescence is measured on a ViewLux CCD-based luminometer reader using a 20 sec exposure time.
% is set by controls: 0 for no effect and ±100 for the full control effect.

Max response, negative = inhibition, inactive:
NC(=O)C1CCN(C2=C(NS(=O)(=O)c3ccccc3)C(=O)c3ccccc3C2=O)CC1 -26.1%, CCC(C(=O)NC(C)(C)C)n1c(-c2ccc(C)cc2)nc2ccccc21 (centres undefined) 0%, CC(C)C(=O)Nc1sc2c(c1C(N)=O)CCN(Cc1ccccc1)C2 13.8%, O=C(Cc1ccc(Cl)cc1)Nc1cccc(S(=O)(=O)Nc2ccccc2F)c1 4.41%, O=C(CCN1CCCCC1)NNC(=O)C12CC3CC(CC(C3)C1)C2 -24.1%, Cc1ccc(NC(=O)CCCc2ccccc2)nc1 -14.3%

Max response, negative = inhibition, active:
O=C(Cn1ncc(Cl)c(Cl)c1=O)c1ccc(Cl)cc1 -55%, CCOC(=O)c1[nH]c2ccc(F)cc2c1NC(=O)C(C)N1CCc2cc(OC)c(OC)cc2C1 (centres undefined) -55.2%, OC(C#CCN1CCCCC1)c1ccccc1 (centres undefined) -50.6%, COc1ccc(NC(=S)N(CCCN2CCCC2)Cc2cccs2)cc1 -64.2%, CCOc1ccc(S(=O)(=O)Nc2cccc(C(=O)NCC(c3ccccc3)N(C)C)c2)cc1 (centres undefined) -67.9%

Max response, negative = inhibition, inconclusive:
CC1=C(C(=O)N2CCOCC2)CC(CC(=O)NCc2ccco2)C(=O)N1Cc1ccc(F)cc1 (centres undefined) -36.6%, Cc1cccc(NC(=S)NC(C)C(c2cccs2)N2CCN(C)CC2)c1C (centres undefined) -35%, COc1ccc(C)cc1NC(=O)CCNC(=O)Cn1cnc2ccccc2c1=O -30%, COc1ccc(/C(O)=C2/C(=O)C(=O)N(CCN3CCOCC3)C2c2ccccn2)cc1 (centres undefined) -42.5%, CC(=O)Oc1ccc2c(=O)c(N3C(=O)c4ccccc4C3=O)c(C)oc2c1 -31.8%, COc1ccccc1N1CCN(C(=O)c2cc3sccc3n2C)CC1 -44.4%, CC1=NN(C(=O)c2ccc(Cn3nc(C)c([N+](=O)[O-])c3C)cc2)C(O)(C(F)(F)F)C1 (centres undefined) -34.1%, O=C(/C=C/c1ccccc1)Nc1ccc(N2CCCCC2)cc1 -32.3%, COCCNC(=O)C1(C)CCN(C(=O)c2ccc3c(c2)C(C)(C)CCC3(C)C)C1 (centres undefined) -31.7%, COc1ccc2nc(NC(=O)CSc3nnc4n3C(C)(C)Cc3ccccc3-4)sc2c1 -34.5%, O=S1(=O)CCN2C(Cc3ccc(SC(F)F)cc3)=CSC2=N1 -32.5%, Cc1cc(=O)n(-c2ccc3ccccc3n2)[nH]1 -32%, CCC1(C)Cc2c(sc3nnn(CC(=O)Nc4ccc(C)cc4)c(=O)c23)CO1 (centres undefined) -39.9%
